Measured values: US20250121064A1 (CARSGEN LIFE SCIENCES, published 2025)
Results are given in words; binding and its absence hold for the method and conditions named. Some entries that bind do so weakly or less than the wild type.

Amino acid sequences for entries named in this document (tags omitted). A change or cut given only in a name is not applied to a line headed by its entry.
UniProt Q9JIL6: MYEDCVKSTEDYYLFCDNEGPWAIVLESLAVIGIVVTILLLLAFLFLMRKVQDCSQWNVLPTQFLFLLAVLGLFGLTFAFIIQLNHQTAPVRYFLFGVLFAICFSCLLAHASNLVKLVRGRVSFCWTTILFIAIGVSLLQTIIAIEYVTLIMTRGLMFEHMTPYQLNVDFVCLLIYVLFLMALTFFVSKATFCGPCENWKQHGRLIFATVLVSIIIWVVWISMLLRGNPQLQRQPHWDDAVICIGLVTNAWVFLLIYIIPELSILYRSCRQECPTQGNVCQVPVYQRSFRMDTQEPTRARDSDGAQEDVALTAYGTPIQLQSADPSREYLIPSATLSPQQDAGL

What was measured:
[1] = molecular target: mouse GPRC5D on cells (mouse) (UniProt Q9JIL6); assay: flow cytometry on CHOK1-muGPRC5D cells
[2] = molecular target: mouse GPRC5D on cells (mouse) (UniProt Q9JIL6); assay: flow cytometry on CHOK1-muGPRC5D cells (FIG. 2)

binding [1]: binds
binding [2]: binds
B1: hybridoma antibody AB1 (IgG2b-k) (antibody, V domains shown)
VH: EVQLQQSGPEVVKPGASMKISCKASGYSFTGYTMNWVKQSHGKNFEWIGLINPYNGGTSYNQKFKGKATLTVDKSSSTAYMELLSLTSEDSAVYYCTRGGFRAWFAFWGQGTLVTVSA
VL: DIQMTQSPSSLSASLGERVSLTCRASQDIGSNLNWLQQEPDGTIKRLIYATSILDSGVPKRFSGSRSGSDYSLTISSLESEDFVDYYCLQYATFPNTFGGGTKLEIKR
notes: Mouse hybridoma mIgG, IgG2b kappa
